Data source: PubChem BioAssay AID504793 (Drosophila RNAi Screening Center, 2011)
Purpose: 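Genes required for cells to halt at G2/M after double-strand DNA breaks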 (primary screen). Cell system: Drosophila S2R+ cells. Reagent: long dsRNA against Drosophila genes, about 0.25 µg dsRNA per well. Time to read-out: 4 days of dsRNA, then 4 hours of drug before read-out. Treatment: doxorubicin 0.5 µM for 4 hours to cause double-strand breaks, in cells also given a low, harmless dose of dsRNA against nbs to sensitise the assay. Measurement: 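Per-well count of mitotic cells stained for phospho-histone H3 after doxorubicin exposure, used as mitotic index; counts are raw and not normalised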. Direction: mitotic cells: higher = more cells in mitosis, weaker G2 arrest. Call rule: 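Genes are called active only when high mitotic counts were reproduced with independent dsRNAs and mitosis was checked for delay without damage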. Calls: active = confirmed in follow-up tests; inactive = not confirmed.
In all, the deposit lists about 23,000 reagents; shown is a random part of those that have a named target and a result. Over the whole deposit, 62 (0.27%) were called active. 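Calls come from follow-up tests whose scores are not deposited, so confirmed genes may have low counts here; counts are not normalised per plate.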 The raw values are shown without normalisation. A plus sign joins genes that one reagent is predicted to hit.

target gene,dsRNA,"mitotic cells, replicate 1","mitotic cells, replicate 2",call
CG4835,DRSC10452,4,,inactive
CG4835,DRSC23696,1,,inactive
Prosbeta2 (Proteasome beta2 subunit),DRSC11257,64,,inactive
CG8010,DRSC20072,9,,inactive
CG8010,DRSC26277,2,,inactive
CG3222,DRSC10355,3,,inactive
CG30291,DRSC03842,4,,inactive
CG13891,DRSC08361,4,,inactive
CG13891,DRSC25733,9,,inactive
Nplp4 (Neuropeptide-like precursor 4),DRSC00391,11,,inactive
CG31391,DRSC16047,10,,inactive
vrs (versager),DRSC15832,7,,inactive
vrs (versager),DRSC26261,4,,inactive
CG33223,DRSC17572,10,,inactive
CG33223,DRSC26875,7,,inactive
CG8569,DRSC07214,8,,inactive
CG14207,DRSC19562,,,inactive
CG14207,DRSC19563,3,,inactive
BomS3 (Bomanin Short 3),DRSC21458,12,,inactive
BomS3 (Bomanin Short 3),DRSC28620,2,,inactive
CG3483,DRSC04371,10,,inactive
CG42496 + Ppcdc,DRSC03886,10,10,inactive
eIF3c (eukaryotic translation initiation factor 3 subunit c),DRSC06905,6,,inactive
bdl (borderless),DRSC00271,4,,inactive
Tina-1 (Troponin C-akin-1),DRSC04317,9,,inactive
Usp8 (Ubiquitin specific protease 8),DRSC15876,8,,inactive
alpha-Est7 (alpha-Esterase-7),DRSC12619,11,,inactive
alpha-Est7 (alpha-Esterase-7),DRSC27539,7,,inactive
Lcp3 (Larval cuticle protein 3),DRSC07457,5,,inactive
Lcp3 (Larval cuticle protein 3),DRSC25185,3,,inactive
CG12985,DRSC19505,6,,inactive
CG12985,DRSC26985,5,,inactive
Arms (Ankyrin repeat-rich membrane spanning),DRSC03856,7,13,inactive
Arms (Ankyrin repeat-rich membrane spanning),DRSC03857,3,,inactive
Arms (Ankyrin repeat-rich membrane spanning),DRSC04052,9,,inactive
Arms (Ankyrin repeat-rich membrane spanning),DRSC04256,9,,inactive
Arms (Ankyrin repeat-rich membrane spanning),DRSC28371,8,,inactive
mas (masquerade),DRSC08720,4,,inactive
mas (masquerade),DRSC28905,8,,inactive
Lrr47 (Leucine-rich repeat 47),DRSC03365,6,,inactive
Gr98a (Gustatory receptor 98a),DRSC14719,6,,inactive
Taf3 (TBP-associated factor 3),DRSC17170,25,,inactive
Taf3 (TBP-associated factor 3),DRSC29650,5,,inactive
RhoGAP19D (Rho GTPase activating protein at 19D),DRSC20499,4,,inactive
RhoGAP19D (Rho GTPase activating protein at 19D),DRSC20500,9,,inactive
CG10063,DRSC09688,1,,inactive
CG10063,DRSC28872,10,,inactive
vis (vismay),DRSC26134,8,,inactive
CG5614,DRSC15845,3,8,inactive
Jon99Fi (Jonah 99Fi),DRSC26496,3,,inactive
CG5757,DRSC06951,2,,inactive
CG10907,DRSC09804,5,,inactive
ND-MNLL (NADH dehydrogenase (ubiquinone) MNLL subunit),DRSC18159,12,,inactive
Sas10 (Something about silencing 10),DRSC18355,4,,inactive
fzy (fizzy),DRSC03534,325,,inactive
Mdr49 (Multi drug resistance 49),DRSC07466,8,,inactive
Mdr49 (Multi drug resistance 49),DRSC24065,,,inactive
U4-U6-60K (U4-U6 small nuclear riboprotein factor 60K),DRSC10624,8,,inactive
CG3251,DRSC00586,4,,inactive
CG8814,DRSC00707,2,,inactive
CG8814,DRSC25994,7,,inactive
Ir75b (Ionotropic receptor 75b),DRSC10189,5,,inactive
CG16749,DRSC15146,6,,inactive
CG16749,DRSC25605,4,,inactive
CG5707,DRSC08573,6,,inactive
CG5707,DRSC24854,4,,inactive
VepD (Ventrally-expressed protein D),DRSC22318,8,,inactive
VepD (Ventrally-expressed protein D),DRSC27653,4,,inactive
Hsp60A (Heat shock protein 60A),DRSC20254,6,,inactive
CG9449,DRSC11073,3,,inactive
CG9449,DRSC25691,4,,inactive
p130CAS,DRSC07862,8,,inactive
p130CAS,DRSC08257,15,,inactive
p130CAS,DRSC26616,8,,inactive
sn (singed),DRSC18834,13,,inactive
sn (singed),DRSC28327,2,,inactive
CG15657,DRSC04248,4,,inactive
CG4576,DRSC15604,9,,inactive
CG4576,DRSC26364,4,,inactive
"ATPsynbeta (ATP synthase, beta subunit)",DRSC17194,7,,inactive
wrapper,DRSC04723,6,,inactive
scramb2 (scramblase 2),DRSC08543,6,,inactive
scramb2 (scramblase 2),DRSC26609,9,,inactive
Ir87a (Ionotropic receptor 87a),DRSC14836,3,,inactive
Ir87a (Ionotropic receptor 87a),DRSC27649,8,,inactive
Tango11 (Transport and Golgi organization 11),DRSC03890,9,,inactive
Tango11 (Transport and Golgi organization 11),DRSC03892,3,,inactive
CG17780 + CG17781,DRSC15266,8,,inactive
CG17780 + CG17781,DRSC25581,4,,inactive
CG17780 + CG17781,DRSC26816,10,,inactive
CG11598,DRSC14331,2,,inactive
RnrL (Ribonucleoside diphosphate reductase large subunit),DRSC03413,3,,inactive
CG17300,DRSC10260,5,,inactive
CG17300,DRSC28904,5,,inactive
Gr93b (Gustatory receptor 93b),DRSC22063,8,,inactive
PIG-O (Phosphatidylinositol glycan anchor biosynthesis class O),DRSC06123,6,,inactive
dop (drop out),DRSC10655,4,,inactive
dop (drop out),DRSC29525,1,,inactive
CG13590,DRSC04226,9,,inactive
CG13590,DRSC29790,9,,inactive
RIOK2 (RIO kinase 2),DRSC14413,13,,inactive
Osi17 (Osiris 17),DRSC12284,5,,inactive
CRIF (CR6-interacting factor),DRSC11811,4,,inactive
CRIF (CR6-interacting factor),DRSC26514,5,,inactive
Pomp,DRSC03201,105,,inactive
Pomp,DRSC27581,6,,inactive
CG5773,DRSC06955,5,,inactive
CG5773,DRSC28940,17,,inactive
CG13744,DRSC06415,6,,inactive
holn1 (hole-in-one),DRSC02827,4,,inactive
holn1 (hole-in-one),DRSC22822,7,,inactive

In a second layout: 6 of the entries above
| target gene | dsRNA | mitotic cells, replicate 1 | mitotic cells, replicate 2 | call |
| --- | --- | --- | --- | --- |
| CG33223 | DRSC17572 | 10 | – | inactive |
| CG33223 | DRSC26875 | 7 | – | inactive |
| CG8569 | DRSC07214 | 8 | – | inactive |
| CG14207 | DRSC19562 | – | – | inactive |
| CG14207 | DRSC19563 | 3 | – | inactive |
| BomS3 (Bomanin Short 3) | DRSC21458 | 12 | – | inactive |
